Source: PubChem BioAssay AID504467 (National Center for Advancing Translational Sciences (NCATS), 2011)
The whole screen tested about 330,000 compounds, of which about 7,700 (2.3%) were called active. This list was built around the results that the source calls inconclusive (neither active nor inactive); the mix of calls is not that of the screen. The call rests on the fitted dose curve; in most records, active means well fitted inhibition curve with a large enough effect; inconclusive means small, poorly fitted or top-dose-only effect, or effect the other way; inactive means flat fitted curve, though single readings scatter. Where the call is inconclusive, the potency comes from a doubtful curve fit.

Assay: qHTS screen for small molecules that inhibit ELG1-dependent DNA repair in human embryonic kidney (HEK293T) cells expressing luciferase-tagged ELG1; further: nearly all actives have a fitted effect of over 55% in size
Details: HEK293T ELG1-luciferase reporter, luminescence, 16 h, DNA damage induced by 5-fluorouridine; activity change, negative = inhibition: at 46.1 µM (top of the series)
Summary of the method: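 DMSO vehicle served as the neutral condition. Each well held 2,000 cells given 5-fluorouridine plus compound; after 16 hr at 37 °C/5% CO2, ONE-Glo was added and luciferase measured 30 min later.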
On the % scale 0 is the no-effect control and ±100 the full control effect; potency means the concentration at half of the fitted maximal effect.

Structure (SMILES)	activity change, negative = inhibition	Potency
O=C(COc1ccccc1)Nc1cccc2nsnc12	inactive: 17.5%	
COc1ccc(CN(C)C(=O)c2ccc(Oc3ccccc3)cc2)cc1F		inconclusive: 29.1 µM [inhibitor, partial curve, poor fit]
Cc1ccc(N/C(=C\C(=O)c2ccccc2)C(=O)O)cc1		inconclusive: 16.4 µM [activator, partial curve]
O=c1cc(-c2ccccc2)[nH]n1-c1nc2ccccc2[nH]1		inconclusive: 25.9 µM [activator, single point]
COC(=O)c1cc(OC)c(OC)cc1NC(=O)c1ccoc1C	inactive: 6%	
Cc1ccc2c(c1)[C@H]1[C@H](CO2)[C@H](c2ccccc2)[C@]2(C)C(=O)Nc3ccc(Cl)cc3C(=O)N12		inconclusive: 14.6 µM [inhibitor, partial curve, poor fit]
CN(C)S(=O)(=O)c1cccc(NC(=O)COC(=O)c2cc3ccccc3oc2=O)c1		inconclusive: 23.1 µM [activator, partial curve]
COCCCC1CCN(C(=O)C2CCC(=O)N(C3CCCC3)C2)CC1 (configuration not stated)	inactive: 6.52%	
O=Cc1ccc(N2CCCC2)c([N+](=O)[O-])c1	inactive: 4.97%	
COc1cccc(-n2c(SCC(=O)N3c4ccccc4CC3C)nnc2-c2ccco2)c1 (configuration not stated)		inconclusive: 29.1 µM [inhibitor, single point]
COc1ccccc1-n1nnnc1S(=O)(=O)Cc1ccc(Cl)cc1		inconclusive: 29.1 µM [inhibitor, single point]
O=C(CCc1c[nH]c2ccccc12)NCCOc1ccccc1		inconclusive: 20.6 µM [activator, single point]
CCN(C1CCCCC1)S(=O)(=O)CCNC(=O)c1ccc2c(c1)OCO2	inactive: -17.8%	
CCCCOc1cccc(C(=O)Nc2ccccc2N2CCCC2)c1	inactive: -10.6%	
COCc1cc(=O)[nH]c(-c2ccccc2OC(F)(F)F)n1	inactive: -9.47%	
CCn1ccc(C(=O)NC2=C(C#N)CCC2)n1	inactive: 19.3%	
O=C(NCC1CCCO1)c1cccc2c1C(=O)c1ccc(N3CCC(Cc4ccccc4)CC3)cc1S2(=O)=O (configuration not stated)		active: 2.59 µM
C#CCOCCOCCOCCNc1nc(N2CCN(C(=O)CCCCCCCCCCNC(=O)Cn3cc(CCCCCN)nn3)CC2)nc(N2CCN(C(=O)CCCCCCCCCCNC(=O)[C@H]([C@@H](C)CC)n3cc(CCCCCN)nn3)CC2)n1		inconclusive: 14.1 µM [inhibitor, single point]
O=C(NCCCO)c1cc2c([nH]c3ccccc32)c(-c2ccccc2)n1		inconclusive: 25.9 µM [inhibitor, single point]
COc1ccccc1-c1nn2c(-c3ccco3)nnc2s1		inconclusive: 18.4 µM [activator, partial curve]
CCCSc1nc(N)c2c3c(sc2n1)CN(C)CC3		inconclusive: 20.6 µM [activator, partial curve]
CCn1c(SCC(=O)c2[nH]c(C)c(C(C)=O)c2C)nnc1-c1cccs1		inconclusive: 16.4 µM [inhibitor, partial curve]
COc1ccc(C2NC(=S)NC3=C2CCCC3=C2SCCS2)cc1 (configuration not stated)		inconclusive: 25.9 µM [activator, single point]
Cc1cc(C(=O)NCC(=O)OCC(=O)Nc2ccc(OC(F)F)cc2)ccc1[N+](=O)[O-]		inconclusive: 16.4 µM [activator, partial curve]

Structure (SMILES)	activity change, negative = inhibition	Potency
COc1ccc(C(=O)NOCc2ccccc2)cc1		inconclusive: 1.12 µM [activator, partial curve]
Cc1ccc(C)c(N(C)C(=O)CCS(=O)(=O)c2cccc3nonc23)c1		inconclusive: 2.06 µM [inhibitor, partial curve, poor fit]
Cc1ccc(-n2cnc(=O)c3cccnc32)cc1		inconclusive: 25.9 µM [activator, single point]
Cc1[nH]n2c(=O)c3c(nc2c1-c1ccccc1)CCCC3		inconclusive: 20.6 µM [inhibitor, single point]
O=C(OCC(=O)N1CCOCC1)c1ccc2ccccc2c1		inconclusive: 23.1 µM [activator, partial curve, poor fit]
CC(OC(=O)c1ccccc1Oc1ccccc1)C(=O)NC1CC1 (configuration not stated)		inconclusive: 20.6 µM [inhibitor, partial curve, poor fit]
COc1ccc(S(=O)(=O)N(C)C[C@H]2Oc3ccc(NC(=O)Cc4ccccc4)cc3C(=O)N([C@H](C)CO)C[C@@H]2C)cc1		inconclusive: 29.1 µM [inhibitor, single point]
COc1ccc(CCNC(=O)Cc2cc(OC)c(OC)cc2Br)cc1OC		inconclusive: 18.3 µM [inhibitor, partial curve, poor fit]
COc1ccc(-c2nn3c(-c4ccc(F)cc4)nnc3s2)cc1	inactive: -19.9%	
CCOC(=O)c1oc2ccccc2c1CN1CC(C)OC(C)C1 (configuration not stated)	inactive: -6.88%	
COc1ccc(N=C2SCC(=O)N2CCc2ccc(OC)c(OC)c2)cc1		inconclusive: 29.1 µM [inhibitor, single point]
CN(CCC1CCOCC1)C(=O)C1CCC(=O)N(CCc2ccccc2)C1 (configuration not stated)	inactive: 17.8%	
O=c1cc(CSc2nnc3ccccn23)c2c(ccc3ccccc32)o1	inactive: -7.08%	
CN1CCN(NC(=O)c2cc(-c3ccc(Cl)s3)nc3ccccc23)CC1		inconclusive: 18.3 µM [activator, single point]
CCOC(=O)c1nnc(-c2ccccc2)[nH]c1=O		inconclusive: 16.4 µM [activator, partial curve, poor fit]
CNS(=O)(=O)c1cc(S(=O)(=O)NC)c2cccc3c2c1NC3=O		inconclusive: 20.6 µM [inhibitor, single point]
Cc1n[nH]c(C)c1S(=O)(=O)N(CC(=O)Nc1ccc2c(c1)OCCO2)c1ccc(C(C)C)cc1		inconclusive: 20.6 µM [inhibitor, single point]
Cc1cccc(Oc2nc(-c3ccccc3)cc(C)c2S(C)(=O)=O)c1C		inconclusive: 25.9 µM [inhibitor, single point]
COc1ccc(C(=O)O/N=C(\N)c2ccc(OC)c(OC)c2)cc1		inconclusive: 20.6 µM [activator, partial curve]
O=S(=O)(NCC(c1ccco1)N1CCc2ccccc2C1)c1ccc(F)cc1 (configuration not stated)	inactive: 5.28%	
COc1cc2[nH]cc(C(=O)NCCc3ccccc3)c(=O)c2cc1OC		inconclusive: 23.1 µM [inhibitor, single point]
Cc1cc(Cl)ccc1OCC(=O)NC1CCCC1	inactive: 15.9%	
Cc1cc(N2CCC(C)CC2)nc(-c2ccccc2O)n1	inactive: -1.33%	
COCCCNc1c2c3c(cccc3[nH]c1=O)C(=O)c1ccccc1-2		active: 11.6 µM

Full records from above.
Cc1ccc(-n2cnc(=O)c3cccnc32)cc1 reads Potency: inconclusive: 25.9 µM [activator, single point]
COc1ccc(C(=O)NOCc2ccccc2)cc1 reads Potency: inconclusive: 1.12 µM [activator, partial curve]
CN(CCC1CCOCC1)C(=O)C1CCC(=O)N(CCc2ccccc2)C1 (configuration not stated) reads activity change, negative = inhibition: inactive: 17.8%
CCCCOc1cccc(C(=O)Nc2ccccc2N2CCCC2)c1 reads activity change, negative = inhibition: inactive: -10.6%

(continued)

Structure (SMILES)	activity change, negative = inhibition	Potency
Cc1ccc(NC(=O)Cc2nnc(SCC(=O)Nc3ccc(N4CCOCC4)cc3)n2C)cc1	inactive: 9.96%	
Oc1ccc(C[C@@H]2CNCCN2CCc2cccc3ccccc23)cc1	inactive: -2.24%	
O=C(c1cc(-c2ccc(F)cc2)nc2ccccc12)N1CCC1		inconclusive: 18.3 µM [inhibitor, single point]
Cc1nc(Nc2ccc(O)cc2)c2c3c(sc2n1)CCCC3		inconclusive: 1.03 µM [inhibitor, single point]
CC(C)OC(=O)c1ccc(NC(=O)c2ccco2)cc1		inconclusive: 7.31 µM [activator, partial curve]
CN(C)c1ccc(C(CNS(=O)(=O)c2cccc([N+](=O)[O-])c2)N2CCOCC2)cc1 (configuration not stated)		inconclusive: 8.2 µM [activator, partial curve, poor fit]
COc1cc(CNCCc2ccccc2)ccc1OCC(N)=O	inactive: -0.293%	
CCN(CC)c1ccc2nc3ccccc3[n+](CC)c2c1		active: 3.66 µM
Cc1ccc2nccc(C(=O)N3CCCC(N4CCN(c5ccc(F)cc5)CC4)C3)c2c1 (configuration not stated)	inactive: 11.5%	
CCOc1cc(C(=O)CCC(=O)OCC(=O)Nc2ccc(C)c(S(=O)(=O)N(C)C)c2)ccc1O		inconclusive: 23.1 µM [activator, single point]
Cc1cc(C)n(-c2ccc(C(=O)Nc3cccc(S(=O)(=O)N(C)C)c3)cc2)n1		active: 9.2 µM
CCN(CC)CCNc1nc2cc(OC)c(OC)cc2c2nc(-c3ccccc3)nn12		inconclusive: 2.91 µM [inhibitor, full curve]
Cc1csc(NC(=O)CSc2ccc3nnc(CCNS(=O)(=O)c4ccccc4)n3n2)n1	inactive: 11.7%	
Cc1cc(C)c2c(n1)sc1c(N3CCCCC3)ncnc12	inactive: 18.2%	
Cc1ccc(NC(=O)c2ccc3nsnc3c2)c(C)c1		inconclusive: 18.3 µM [activator, partial curve]
Cc1cc(-n2nc(C)cc2C)n2nc(C)c(-c3ccccc3)c2n1	inactive: -15.9%	
COc1cc(C(=O)NC(=S)Nc2nc(-c3ccc(F)cc3)cs2)cc(OC)c1OC	inactive: 10.3%	
CS(=O)(=O)c1cccc(NC(=O)C2CC2)c1	inactive: -4.35%	
CC1CCCCN1C(=O)C1CC(c2ccc(F)cc2)=NO1 (configuration not stated)		inconclusive: 18.4 µM [activator, partial curve]
O=S1(=O)NC(CC2=CCCCC2)C2CCCCC2O1 (configuration not stated)	inactive: -4.16%	
CC(=O)N1CCCc2cc(S(=O)(=O)N3CCCC(C(=O)N4CCN(c5cccc(Cl)c5)CC4)C3)ccc21 (configuration not stated)		active: 20.6 µM
CN(C)c1ccc(P(=O)(OCc2ccccc2)C(O)c2ccc(Cl)cc2)cc1 (configuration not stated)		inconclusive: 0.73 µM [activator, single point]
Cc1nn(-c2ccccc2)c(Cl)c1/C=N/NC(=O)c1cccc(S(=O)(=O)N2CCCC2)c1		active: 13 µM
O=C(CCN1C(=O)/C(=C\c2ccccc2)SC1=S)N1CCCCC1		inconclusive: 16.4 µM [inhibitor, single point]
